Measured values from article PMC8877285.

T1: flavin-containing monooxygenase 3 (FMO3) (mouse (endogenous in mouse liver)) (UniProt P97501)
T1 sequence: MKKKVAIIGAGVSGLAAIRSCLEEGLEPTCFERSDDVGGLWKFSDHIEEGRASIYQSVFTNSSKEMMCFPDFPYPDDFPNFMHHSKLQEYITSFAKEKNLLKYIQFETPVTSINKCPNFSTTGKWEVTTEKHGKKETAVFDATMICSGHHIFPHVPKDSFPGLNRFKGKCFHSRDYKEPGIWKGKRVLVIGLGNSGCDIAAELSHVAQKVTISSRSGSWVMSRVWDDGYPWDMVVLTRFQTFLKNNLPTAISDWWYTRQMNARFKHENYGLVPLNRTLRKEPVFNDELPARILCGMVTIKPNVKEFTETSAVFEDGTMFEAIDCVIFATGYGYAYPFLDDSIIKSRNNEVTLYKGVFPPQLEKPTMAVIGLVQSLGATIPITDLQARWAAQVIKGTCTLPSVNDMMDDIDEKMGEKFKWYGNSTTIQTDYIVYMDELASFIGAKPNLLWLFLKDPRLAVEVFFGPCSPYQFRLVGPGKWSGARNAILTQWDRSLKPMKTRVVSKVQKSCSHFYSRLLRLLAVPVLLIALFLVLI

B1: FTCD (protein, UniProt Q91XD4 1-541)
chain: MSQLVECVPNFSEGNNQEVIDAISRAISQTPGCVLLDVDAGPSTNRTVYTFVGQPECVVEGALHAARTASQLIDMSKHKGEHPRMGALDVCPFIPVRGVSMEECVLCAKAFGQRLAEELNVPVYLYGEAAQTPSRQTLPAIRAGEYEALPEKLKQAEWVPDFGPSSFVPSWGATVTGARKFLIAFNINLLSTKEQAHRIALNLREQGRGKDQPGRLKKVQGIGWYLEEKNLAQVSTNLLDFEVTALHTVFEEARREAQELNLPVVGSQLVGLVPLKALLDAAAFYCDKEKLFVLEEEHRIRLVVNRLGLDSLAPFDPKERIIEYLVPDSGPEQSLLDTSLRGFVREVGARSAAPGGGSVAAAVAALGAALASMVGQMTYGRRQFDHLDSTMRRLIPPFHAASAQLTSLVDADARAFAACLEAIKLPKNTPEERDRRACALQEGLRQAVAVPLKLAETVSQLWPALQELAHCGNLSCLSDLQVAAKALETGVFGAYFNVLINLKDMTDDVFKEKTHHRISSLLQEAKTQAALVLGSLEARKE
B2: GNMT (protein, UniProt Q9QXF8 1-293)
chain: MVDSVYRTRSLGVAAEGLPDQYADGEAARVWQLYIGDTRSRTAEYKAWLLGLLRQHGCHRVLDVACGTGVDSIMLVEEGFSVMSVDASDKMLKYALKERWNRRKEPSFDNWVIEEANWLTLDKDVLSGDGFDAVICLGNSFAHLPDCKGDQSEHRLALKNIASMVRPGGLLVIDHRNYDYILSTGCAPPGKNIYYKSDLTKDITTSVLTVNNKAHMVTLDYTVQVPGTGRDGSPGFSKFRLSYYPHCLASFTELVRAAFGGRCQHSVLGDFKPYKPGQAYVPCYFIHVLKKTD
B3: arginase (ARG) (protein, UniProt Q61176 1-323)
chain: MSSKPKSLEIIGAPFSKGQPRGGVEKGPAALRKAGLLEKLKETEYDVRDHGDLAFVDVPNDSSFQIVKNPRSVGKANEELAGVVAEVQKNGRVSVVLGGDHSLAVGSISGHARVHPDLCVIWVDAHTDINTPLTTSSGNLHGQPVSFLLKELKGKFPDVPGFSWVTPCISAKDIVYIGLRDVDPGEHYIIKTLGIKYFSMTEVDKLGIGKVMEETFSYLLGRKKRPIHLSFDVDGLDPAFTPATGTPVLGGLSYREGLYITEEIYKTGLLSGLDIMEVNPTLGKTAEEVKSTVNTAVALTLACFGTQREGNHKPGTDYLKPPK
B4: GOLGA1 (protein, UniProt Q9CW79 1-758)
chain: MFAKLKKKIAEETAVAQRPGGTTRIPRSVSKESVASMGADSGDDFASDGSSSREDLSSQLLRRNEQIRKLEARLSDYAEQVRNLQKIKEKLEIALEKHQDSSMRKFQEQNETFQASRAKMAEGLALALARKDQEWSEKMEQLEKDKRFLTSQLQEVKNQSLSLFQKRDEIDELEGFQQQEISKVKHMLLKKEECLGKMEQELDARTRELNRTQEELVTSNQLSSDLNERLEELQRHCSTLEEQRDHLTASKAGAEHKIVVLEQKEQELQAIIQQHSIDLQKVTAETQEKEKVITHLQEKVIFLEKRLEQNLSGEDHVQELLKEKTVAEQNLEDTRQQLLAARNSHTKALYLLETRVKDLERSLQAAEEQLSQSRNVVADQEAQIQKLITTNQENSLSQQQVLALEQHCRERIHALEAQIEALEQTRVADQIASEQGMLQLQQENVALKESRNECEHSLQHHQLELKKLKDEWSQREIVSVAMAQALEEVRKQREEFQQQATELTAIIEEKNQSLCEKDEALLQKEQELRQLEKGHSSALLQMHKLQRELEALKTCKAQEAMPATTGEDCLPLQGQEPLVISKAMQNSEYELPAAEGTPNGEVGASDLKQLQKEKQDLEQQLIEKNKIMKQMQQRMLELKKTLQKELKIRPDSELFEVREKTGPEIPNMAPSVTNNTDLTDAREINFEYLKHVVLKFMSCRESEAFHLIKAVSVLLNFSQEEENMLKETLEYKMSWFGSKPTPKGSIRPSISNPRIPWS
B5: GOLGA3 (protein, UniProt P55937 1-1487)
chain: MDGASAKQDGLWESKSSSDVSSCPEASLETVGSLARLPDQQDTAQDASVEVNRGFKEEGSPDRSSQVAICQNGQIPDLQLSLDPTTSPVGPDASTGVDGFHDNLRNSQGTSAEGSVRKEALQSLRLSLPMQETQLCSTASSLPLEKEEQVRLQARKRLEEQLMQYRVKRHRERSSQPATKMKLFSTLDPELMLNPENLPRASTVAVTKEYSFLRTSVPRGPKVGSLGLLAHSKEKKNSKSSKIRSLADYRTEDPSDSGGLGSTADAVGSSLKQSRSSTSVVSEVSPSSETDNRVESASMTGDSVSEADGNESDSSSHSSLSARGACGVLGNVGMPGTAYMVDGQEISAEALGQFPSIKDVLQAAAAQHQDQNQEANGEVRSRRDSICSSVSMESSLAEPQDELLQILKDKRRLEGQVEALSLEASQALQEKAELQAQLAALSTRLQAQVEHSHSSQQKQDSLSSEVDTLKQSCWDLGRAMTDLQSMLEAKNASLASSNNDLQVAEEQYQRLMAKVEDMQRNILSKDNTVHDLRQQMTALQSQLQQVQLERTTLTSKLQASQAEITSLQHARQWYQQQLTLAQEARVRLQGEMAHIQVGQMTQAGLLEHLKLENVSLSHQLTETQHRSIKEKERIAVQLQSIEADMLDQEAAFVQIREAKTMVEEDLQRRLEEFEGEREQLQKVADAAASLEQQLEQVKLTLFQRDQQLAALQQEHLDVIKQLTSTQEALQAKGQSLDDLHTRYDELQARLEELQREADSREDAIHFLQNEKIVLEVALQSAKSDKEELDRGARRLEEDTEETSGLLEQLRQDLAVKSNQVEHLQQETATLRKQMQKVKEQFVQQKVMVEAYRRDATSKDQLINELKATKKRLDSEMKELRQELIKLQGEKKTVEVEHSRLQKDMSLVHQQMAELEGHLQSVQKERDEMEIHLQSLKFDKEQMIALTEANETLKKQIEELQQEAKKAITEQKQKMKRLGSDLTSAQKEMKTKHKAYENAVSILSRRLQEALASKEATDAELNQLRAQSTGGSSDPVLHEKIRALEVELQNVGQSKILLEKELQEVITMTSQELEESREKVLELEDELQESRGFRRKIKRLEESNKKLALELEHERGKLTGLGQSNAALREHNSILETALAKREADLVQLNLQVQAVLQRKEEEDRQMKQLVQALQVSLEKEKMEVNSLKEQMAAARIEAGHNRRHFKAATLELSEVKKELQAKEHLVQTLQAEVDELQIQDGKHSQEIAQFQTELAEARTQLQLLQKKLDEQMSQQPTGSQEMEDLKWELDQKEREIQSLKQQLDLTEQQGKKELEGTQQTLQTIKSELEMVQEDLSETQKDKFMLQAKVSELKNNMKTLLQQNQQLKLDLRRGAAKKKEPKGESNSSSPATPIKIPDCPVPASLLEELLRPPPAVSKEPLKNLNNCLQQLKQEMDSLQRQMEEHTITVHESLSSWAQVEAAPAEHAHPRGDTKLHNQNSVPRDGLGQ
B6: GSTZ1 (protein, UniProt Q9WVL0 1-216)
chain: MQAGKPILYSYFRSSCSWRVRIALALKGIDYEIVPINLIKDGGQQFTEEFQTLNPMKQVPALKIDGITIVQSLAIMEYLEETRPIPRLLPQDPQKRAIVRMISDLIASGIQPLQNLSVLKQVGQENQMQWAQKVITSGFNALEKILQSTAGKYCVGDEVSMADVCLVPQVANAERFKVDLSPYPTISHINKELLALEVFQVSHPRRQPDTPAELRT
B7: HINT1 (protein, UniProt P70349 1-126)
chain: MADEIAKAQVAQPGGDTIFGKIIRKEIPAKIIFEDDRCLAFHDISPQAPTHFLVIPKKHISQISVADDDDESLLGHLMIVGKKCAADLGLKRGYRMVVNEGADGGQSVYHIHLHVLGGRQMNWPPG
B8: OGDH (protein, UniProt Q60597 41-1023)
chain: SAPVAAEPFLSGTSSNYVEEMYCAWLENPKSVHKSWDIFFRNTNAGAPPGTAYQSPLSLSRSSLATMAHAQSLVEAQPNVDKLVEDHLAVQSLIRAYQIRGHHVAQLDPLGILDADLDSSVPADIISSTDKLGFYGLHESDLDKVFHLPTTTFIGGQEPALPLREIIRRLEMAYCQHIGVEFMFINDLEQCQWIRQKFETPGIMQFTNEEKRTLLARLVRSTRFEEFLQRKWSSEKRFGLEGCEVLIPALKTIIDMSSANGVDYVIMGMPHRGRLNVLANVIRKELEQIFCQFDSKLEAADEGSGDMKYHLGMYHRRINRVTDRNITLSLVANPSHLEAADPVVMGKTKAEQFYCGDTEGKKVMSILLHGDAAFAGQGIVYETFHLSDLPSYTTHGTVHVVVNNQIGFTTDPRMARSSPYPTDVARVVNAPIFHVNSDDPEAVMYVCKVAAEWRNTFHKDVVVDLVCYRRNGHNEMDEPMFTQPLMYKQIRKQKPVLQKYAELLVSQGVVNQPEYEEEISKYDKICEEAFTRSKDEKILHIKHWLDSPWPGFFTLDGQPRSMTCPSTGLEEDVLFHIGKVASSVPVENFTIHGGLSRILKTRRELVTNRTVDWALAEYMAFGSLLKEGIHVRLSGQDVERGTFSHRHHVLHDQNVDKRTCIPMNHLWPNQAPYTVCNSSLSEYGVLGFELGFAMASPNALVLWEAQFGDFNNMAQCIIDQFICPGQAKWVRQNGIVLLLPHGMEGMGPEHSSARPERFLQMCNDDPDVLPDLQEENFDINQLYDCNWIVVNCSTPGNFFHVLRRQILLPFRKPLIVFTPKSLLRHPEARTSFDEMLPGTHFQRVIPENGPAAQDPHKVKRLLFCTGKVYYDLTRERKARNMEEEVAITRIEQLSPFPFDLLLKEAQKYPNAELAWCQEEHKNQGYYDYVKPRLRTTIDRAKPVWYAGRDPAAAPATGNKKTHLTELQRFLDTAFDLDAFKKFS
B9: ACAA2 (protein, UniProt Q8BWT1 1-397)
chain: MALLRGVFIVAAKRTPFGAYGGLLKDFSATDLTEFAARAALSAGKVPPETIDSVIVGNVMQSSSDAAYLARHVGLRVGVPTETGALTLNRLCGSGFQSIVSGCQEICSKDAEVVLCGGTESMSQSPYCVRNVRFGTKFGLDLKLEDTLWAGLTDQHVKLPMGMTAENLAAKYNISREDCDRYALQSQQRWKAANEAGYFNEEMAPIEVKTKKGKQTMQVDEHARPQTTLEQLQKLPSVFKKDGTVTAGNASGVSDGAGAVIIASEDAVKKHNFTPLARVVGYFVSGCDPTIMGIGPVPAINGALKKAGLSLKDMDLIDVNEAFAPQFLSVQKALDLDPSKTNVSGGAIALGHPLGGSGSRITAHLVHELRRRGGKYAVGSACIGGGQGIALIIQNTA

The binders below were run against T1, flavin-containing monooxygenase 3 (FMO3) (mouse (endogenous in mouse liver)) (assay: affinity purification with mass spectrometry; mouse liver extracts (vehicle or PCB-126-treated mice) in TBS (25 mM Tris pH 7.4, 150 mM NaCl, 1% NP-40, 5% glycerol, protease inhibitors), immunoprecipitated overnight at 4 °C with anti-FMO3 (Abnova) on protein A/G agarose; normal IgG IP as control; LC-MS/MS of the tryptic digest).

| Binder | binding |
| --- | --- |
| B1 | binds |
| B2 | binds |
| B3 | binds |
| B4 | binds |
| B5 | binds |
| B6 | binds |
| B7 | binds |
| B8 | binds |
| B9 | binds |

These are yes or no findings as the source states them, for the method shown. In cells and extracts the contact can be indirect. These calls come from enrichment with a bait or labelling near it, and not all partners need be listed. Where a sequence is shown, tags or fusion partners need not be part of it.
